Experimental data reported in patent US20170152308A1.
Residue numbers refer to the chain shown, from its start. These are yes or no findings as the source states them, for the method shown. Some results given as binding are weak or reduced against the parent protein; the word gives no strength.

Protein sequences, listed by entry. Tags and fused reporters are not part of them.
UniProt Q13148: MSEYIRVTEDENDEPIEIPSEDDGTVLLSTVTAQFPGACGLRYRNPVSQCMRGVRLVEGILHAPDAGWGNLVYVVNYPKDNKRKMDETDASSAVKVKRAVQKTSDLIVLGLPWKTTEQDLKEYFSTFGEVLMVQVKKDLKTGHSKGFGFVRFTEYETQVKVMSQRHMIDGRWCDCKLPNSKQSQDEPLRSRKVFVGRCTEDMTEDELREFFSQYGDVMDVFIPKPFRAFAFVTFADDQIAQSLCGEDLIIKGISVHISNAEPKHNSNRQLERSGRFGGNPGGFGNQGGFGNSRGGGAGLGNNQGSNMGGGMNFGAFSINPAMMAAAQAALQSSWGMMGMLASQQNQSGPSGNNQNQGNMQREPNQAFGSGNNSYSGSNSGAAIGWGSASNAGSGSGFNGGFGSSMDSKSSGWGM

B1: NI-205.15F12 (antibody, human IgG1, V domains shown)
VH: QVQLVQSGTAVKKPGASVKVSCKASGFSFNGYYMHWVRQAPGQGLEWMGVINPNGGSTNYAQKFKGRITMSADTPARSVSMELGSLRSDDTAMYYCARLPVNIEVLDLWGQGTLVTVSS
VL: DIVMTQSPDSLAVSLGERATINCRSSQTVLFSSNDKNYLAWYQQKPGQPPKLLIYWASVRASGVPDRFSGSGSGTDFSLTINGLQAEDVAVYYCQQSSTAPLTFGGGTKVEIK
B2: NI-205.87E7 (antibody, human IgG1, V domains shown)
VH: EVQLLESGGGLVQPGGSLRLSCAASGFTFSSYAMSWVRQAPGKGLEWVSAISGGGDRTYSADSVKGRFTISRDNSKNTLYLQINSLRVEDTAVYYCAQGGGGEMTAVTMDGTYYGMDVWGQGTTVTVSS
VL: QSALTQPRSVSGSPGQSITISCTGTSSNVGTYKFVSWYQQHPGKAPKLMIYDVTKRPSGVPDRFSGSKSGNTASLTISGLQAEDEADYYCCSYAGSYTYVFGSGTKVTVL
B3: NI-205.29E11 (antibody, human IgG1, V domains shown)
VH: QVQLVQSGAEVKKPGASVKVSCKASGYIFTDYFIHWIRQAPGQGLEWMGWIKPKSGGTDYAEKFQGRVTLTRDTSITTVYMELSRLNSDDTAVYYCARLKYSVPDSDYWGQGTLVTVSS
VL: DVVMTQSPLSLPVTLGQSASISCRSSQGLVHSDGNTYLNWFHQRPGQSPRRLIYKVFNRDSGVSDRFSGSGSGSDFTLMISRVEAEDVGIYYCMQGTLWPLTFGQGTKVEIK
B4: NI-205.44B2 (antibody, human IgG1, V domains shown)
VH: QVQLQESGPGVVKPSQTLSLTCTVSGVSVGSGDYYWSWIRHHPGKGLEWIGYISFFGSSNYNPSLKGRVSMSVDTSNNQFSLNLKSVTAADTAVYFCATGNAYSFWGQGTMVTVSS
VL: QSALTQPASVSGSPGQSITISCTGTSSDIGTHNLVSWYQQHPGKAPKLIIYEIFERPSGISSRFTGSKSGNTASLTISGLQAEDEADYFCCAYSVTVIFGGGTKLTVL
B5: NI-205.10H7 (antibody, human IgG1, V domains shown)
VH: QVQLVESGGGVVQPGRSLRLSCAASGFTFSNYAMHWVRQAPGKGLEWVAVIWYDGSKKYYGDSVKGRFTISRDNPKNTLYLQMNSLRVEDTAIYYCVPDAFDMWGQGTMVTVSS
VL: DIVMTQTPLSSPVTLGQPASISCRSSQSLVHTDGKTYLSWLHQRPGQPPRPLIYKMSKRFSGVPDRFSGSGAETEFTLKISRVEAEDVGIYYCLQLTQFPITFGQGTRLEIK
B6: NI-205.113C4 (antibody, human IgG1, V domains shown)
VH: QVQLVQSGAEVKKPGASVKVSCKASGYTFTNYYMHWVRQAPGQGLEWMGIINPSGGRTSYAQKFQGRASMTRDTSTSTVYMEVISLRSEDTAVYYCARQRPSGYSGYGPSESYGNPTDDAFDVWGQGTTVTVSS
VL: SYVLTQPPSVSVAPGQTARITCGGNNIGSRGVHWYQQRPGQAPVLVVYDDSDRPSGIPERFSGSNSGDTATLTISRVEVGDEADYYCQVWDNSSDHLVVFGGGTKLTVL
B7: NI-205.38H2 (antibody, human IgG1, V domains shown)
VH: EVQLVESGGDLVQPGGSLRLSCTASGFNLGDYWMHWVRQVPGKGLVWVSRISSDGASVSYADFVEGRFTISRGNARNTLFLELNSLRLDDTAVYYCAMGVVWGQGTLVTVSS
VL: SYELTQPPSVSVSPGQTATISCSGDALPKRYAYWYKQKSGQVPVLIIYEDNKRPSGIPARFSGSSSGTMATLTITGAQVDDEADYYCYSSDNSDTYSVFGGGTKLTVL
B8: NI-205.21G2 (antibody, human IgG1, V domains shown)
VH: QVQLVQSGAEVKKPGASVKVSCKTSGYSFTSYTLHWVRQAPGHRPEWMGWINAAFINTKYSQKFQGRITLTRDTSANIAYLELRSLTTEDTAVYYCARRASGSNGLDVWGQGTTVTVSS
VL: DIQMTQSPSSLSASVGDRITITCQASRDITNYLNWYQQKPGKAPKLLIYDASYLETGVPSTFSGSGSGTHFTLTISSLQPDDFATYYCQQYDSVPLTFGGGTKVEIK
B9: NI-205.1A9 (antibody, human IgG1, V domains shown)
VH: QVQLVQSGSELKKPGASVKVSCKASGYTFTSYAMNWVRQAPGQGLEWMGWINTNTGNPTYAQGFTGRFVFSLDTSVSTAYLQISSLKAEDTAVYYCARDRIDGSSWSSWFDPWGQGTLVTVSS
VL: QSVLTQPPSVSGAPGQRVTISCTGSSSNIGAGYDVHWYQQLPGTAPKLLIYGNSNRPSGVPDRFSGSKSGTSASLAITGLQAEDEADYYCQSFDSSLSSSVFGGGTKLTVL
B10: NI-205.8A2 (antibody, human IgG1, V domains shown)
VH: QVQLVESGGGVVQPGKSLRLSCAASGFTFRDHGMHWVRQAPGKGLEWVAVIWLDGSSRFYADSVEGRFTISRDNSKNTLYLQLTSLRAEDTAIYYCARDRVASEGTAFDVWGQGTMVTVSS
VL: EIVLTQSPATLSLSPGERATLSCWASQNVNHYLVWYQQRPGQAPRLLLYDTSVRAAGIPARFIGSGSGTHFTLTISSLEPEDSAVYYCQHRSDWTFGQGTKVEIK
B11: NI-205.51C1 (antibody, human IgG1, V domains shown)
VH: EVQLVESGGGLVQPGGSLRISCTTSGFIFSDYWMHWVRQAPGKGLTWVSRINLDGSDTIYADSVKGRFTISRDNDKNTLYLQMNSLRVEDTAIYYCARSRKSVWGQGTMVTVSS
VL: QSALTQPASVSGSPGQSITISCTGSNTDVGAYDYVSWSQQLPGKAPKFVIFDVDVRPSGISDRFSGSKSGNTASLTISGLQAEDEADYYCSSYTKSGTLVFGGGTKVTVV
B12: NI-205.25F3 (antibody, human IgG1, V domains shown)
VH: QVQLVESGGGVVQPGRSLRLSCAASGFTFSNYVMYWVRQAPGKGLEWVAFISYDGSNKYYPDSVKGRFTISRDNSMNTLYLQMDSLRAEDTAVYYCARDTYQYDSSTYYPYFYYYGMDVWGQGTTVTVSS
VL: QSALTQPASVSGSPGQSITISCIGTSSDVGGYNYVSWYQQHPGKAPKLMIYEVSNRPSGVSSRFSGSKSGNTASLTISGLQSEDEADYYCSSFASSSTSVTFGGGTKLTVL
B13: NI-205.21G1 (antibody, human IgG1, V domains shown)
VH: QVQLVESGGGVVQPGMSLRLSCAASGFSFSSHGMHWVRQTPGKGLEWLAVISYDASNKSYADSVKGRFTISRDNSKKTLYLQMDSLRVEDTALYYCANAFSSSASGGYWGQGTLVTVSS
VL: DVVMTQSPLSLPVTLGQPASISCRSSQSLVHSDGVTYLNWFQQRPGQSPRRLIYKVSNRDSGVPDRFSGSGSGTDFTLEISRVEAEDVGIYYCMQGTHWPPWTFGQGTKVEIK
B14: NI-205.31C11 (antibody, human IgG1, V domains shown)
VH: QVQLVESGGGVVQPGRSLRLSCVASGFTFDNYGMHWVRQAPGKGLEWLAVISYGGDHQFYGDSVKDRFTISRDNSKNTAYLQMHSLRPDDTAVYYCATGVTPDFWGQGTLVTVSS
VL: B13 VL with V35N, N58H, E79K, I90V, M94L, W102F, V110L
B15: NI-205.14H5 (antibody, human IgG1, V domains shown)
VH: EVQLLESGGGLVQPGGSLRLSCAASGFTFRNYAMAWVRQAPGKGLEWVSAIPARGDKTYYADSVRGRFTISRDISKSALYLQMNSLRVEDTAVYYCAKAHHLYNKNFDYWGQGTLVTVSS
VL: EIVLTQSPGTLSLSPGETVTLSCRASQSVSSSNLAWYQQKPGQAPRLLIYGASSRATGIPDRFSGRGSGTDFTLTISRLEPEDFAVYYCQHYGTFGQGTKVDIK
B16: NI-205.8F8 (antibody, human IgG1, V domains shown)
VH: EVQLLESGGGLVQPGGSLRLSCAASGYTFSYYAMSWVRQAPGKGLEWVSTIGDSGSTTHYADSVKGRFTISRDNSKSTLYLQMNSLRAEDTAVYYCAKGLGPVAAIGDYWGQGTLVTVSS
VL: QSVLTQPPSASGTPGQRVTISCSGSSSNIGSNNVYWYQQLPGTAPKLLVYRNNQRPSGVPDRVSGSKSGSSASLAISGLRSEDEADYYCAAWDDSLRGYVFGTGTKVTVL
B17: NI-205.36D5 (antibody, human IgG1, V domains shown)
VH: QVQLVESGGGVVQPGRSLRLSCAASRFTFSSYGMHWVRQAPGKGLEWVALIYYDATQKYYADSVKGRFTISRDNSKNALYLQMTSLRADDTAVYYCARDLPYHYHRSASFAPADTWGQGTLVTVSS
VL: EIVLTQSPGTLSLSPGERATLSCRASQTISNNYLAWYQQKPGQAPRLLVYAASSRATGIPDRFYGSGSGADFTLTISRLEPEDFVVYYCQQYGSSPITFGQGTRLEIK

biological target: recombinant full-length His-tagged human TDP-43 (2-414) (human) (UniProt Q13148); test: Western blot

binding, binds:
B1
B2
B3
B4
B5
B6
B7
B8
B9
B10
B11
B12
B13
B14

biological target: recombinant full-length His-tagged human TDP-43 (2-414) (human) (UniProt Q13148); test: direct ELISA, coated antigen

binding, binds:
B1
B2
B3
B4
B5
B6
B7
B8
B9
B10
B11
B12
B13
B14

biological target: TDP-43 in human FTLD-U (and ALS) patient tissue sections (human) (UniProt Q13148); test: immunohistochemistry, FTLD-U case hippocampus

binding, binds:
B15
B1
B5
B16
B8
B10
B17
B14

biological target: TDP-43 in human FTLD-U (and ALS) patient tissue sections (human) (UniProt Q13148); test: immunohistochemistry, patient tissue sections

binding, binds:
B8
B10

biological target: recombinant full-length His-tagged human TDP-43 (2-414) (human) (UniProt Q13148); test: direct ELISA, coated recombinant full length TDP-43

binding, binds:
B1
B2
B6
B10
B12
